At least one compound was matched to its structure with a doubt left.
Key:
[1] = system: Staphylococcus epidermidis; details: Lindsay et al. 1993; cited from earlier work
[2] = system: Staphylococcus epidermidis; assay: Growth inhibition of Staphylococcus epidermidis by Deferoxamine; type: cell-based; details: on the CHROMagar Staph. aureus medium

CC(=O)N(O)CCCCCNC(=O)CCC(=O)N(O)CCCCCNC(=O)CCC(=O)N(O)CCCCCN [Deferoxamine]
growth inhibition [1]: growth inhibitor for Staphylococcus epidermidis but not for the other staphylococcal species | inhibition of Staphylococcus epidermidis [2]: only partial

From patent US7807439B2, “Staphylococcus aureus-specific detection media and identifying and/or counting method using same” (Biomerieux S.A., priority 2001, dated 2010)
